This is an account of results in ChEMBL document CHEMBL5550209, “Hit-to-Lead Optimization of Heterocyclic Carbonyloxycarboximidamides as Selective Antagonists at Human Adenosine A3 Receptor” (J Med Chem, 2024).

By Papp B→A is commonly meant the apparent permeability from the basolateral to the apical side of a cell layer.

This data set can be described thus: in vitro. The settings on record: human, Caco-2.

Structures are written as SMILES.

As to `CC(C)NCC(O)COc1cccc2ccccc12` (stereo unspecified) [PROPRANOLOL], the Papp B→A is 32.6 ×10⁻⁶ cm/s.
